# Laboratory results published in PubChem BioAssay AID540256 (National Center for Advancing Translational Sciences (NCATS), 2011).
# Where “and” joins values, the source holds several entries; their conditions need not be identical. Equal entries are not always repeated. About 3,700 (1.2%) of roughly 300,000 compounds were called active. The shares of active, inactive and inconclusive entries below differ from those in the screen. The call rests on the fitted dose curve; tested in HEK293 cells. A potency beside an inconclusive call is a rough fit, not a confirmed value.
# Experiment: qHTS for Inhibitors of binding or entry into cells for Lassa Virus; further: nearly all actives have a fitted effect of over 50% in size
# Settings: Lassa virus pseudotype entry inhibition, cell reporter; series mostly up to 37.9 µM
# Potency means the concentration at half of the fitted maximal effect.
row,SMILES,Potency
1,O=C(NNC(=O)c1cnccn1)c1ccc(Cl)cc1,"inconclusive: 0.794 µM [activator, full curve, poor fit]"
2,O=C(c1ccc(COc2ccccc2Cl)o1)N1CCCC1,inactive
3,CCn1c2ccc(C)cc2c2n[nH]c(=S)nc21,"inconclusive: 4.47 µM [inhibitor, partial curve, poor fit]"
4,O=C(N/N=C/c1ccncc1)c1cc(-c2ccc(Br)s2)[nH]n1,"inconclusive: 6.31 µM [inhibitor, partial curve, poor fit]"
5,CCC1CSC(Nc2ccc(C(=O)/C=C/c3ccc(Br)cc3)cc2)=N1 (configuration not stated),"inconclusive: 14.6 µM [activator, single point]"
6,Cc1ccc(-n2nccc2-c2nn(-c3cccc(C(F)(F)F)c3)c(=O)n(C)c2=O)cc1,"inconclusive: 5.62 µM [inhibitor, partial curve, poor fit]"
7,CNC(=O)Oc1ccc(-c2cn3cc(Cl)ccc3n2)cc1,active: 7.31 µM
8,CCOc1ccc(C(=O)Nc2ccccc2C(=O)O)cc1,"inconclusive: 22.4 µM [inhibitor, single point]"
9,COc1ccc(C2Nc3cccc4cccc(c34)N2)cc1,inactive
10,COc1ccc(F)cc1S(=O)(=O)NC1CCCC1,"inconclusive: 0.0041 µM [activator, full curve, poor fit]"
11,CCCCC[C@H](O)/C=C/[C@@H]1[C@@H](CCCCCCC(=O)O)[C@@H](O)C[C@H]1O,"inconclusive: 6.51 µM [inhibitor, single point]"
12,NNC(=O)c1cccc(COc2ccc3c(c2)CCC3)c1,active: 2.06 µM
13,CC(=O)C(C(C)=O)c1c(Cl)c(O)c(O)c2c(C(=O)c3ccccc3)coc12,active: 7.08 µM
14,Cn1c2ccccc2c2c(C(=O)N3CCN(c4ccc(F)cc4)CC3)cn(C3CCCCC3)c(=O)c21,"inconclusive: 7.08 µM [inhibitor, partial curve, poor fit]"
15,COc1cc(C(=O)Nc2ccc3oc(-c4ccccc4)nc3c2)cc(OC)c1OC,"inconclusive: 35.5 µM [inhibitor, single point]"
16,O=C(Nc1ccc(N2C(=O)C3CCCCC3C2=O)cc1Cl)c1cccs1 (configuration not stated),inactive
17,COc1ccc(NS(=O)(=O)c2cc(NC(=O)c3cnccn3)ccc2OC)cc1Br,"inconclusive: 11.2 µM [inhibitor, single point]"
18,CCOc1ccccc1NC(=O)Nc1nnc(N2CCCCCC2)s1,"inconclusive: 3.16 µM [activator, partial curve, poor fit]"
19,O=C(O)CCCNC(=O)/C=C/c1ccco1,"inconclusive: 1.26 µM [inhibitor, single point]"
20,COc1ccc(C(=O)NC(=S)Nc2ccc([N+](=O)[O-])cc2C)cc1OC,inactive
21,CCC(=O)N1CCc2cc(Br)cc(S(=O)(=O)CCC(=O)NCCc3ccc(Cl)cc3)c21,"inconclusive: 3.16 µM [inhibitor, partial curve, poor fit]"
22,COC(=O)c1ccc2c(=O)n(CCCN3CCCC3=O)c(=S)[nH]c2c1,inactive
23,CCc1cccc(NC(=O)c2ccc(CN3C(=O)C(C)=C(c4ccc(OC)cc4)S3(=O)=O)cc2)c1,"inconclusive: 35.5 µM [inhibitor, single point]"

row,SMILES,Potency
1,CCOC(=O)C(CC)/C(C)=N\NC(=O)c1ccccc1O (configuration not stated),inactive
2,COc1ccc(/C=N/NC(=O)C2C3CCCCC32)cc1OC (configuration not stated),"inconclusive: 25.1 µM [inhibitor, single point]"
3,Cc1[nH][nH]c(=O)c1N=Nc1ccc(Br)c(Cl)c1,"inconclusive: 22.4 µM [activator, single point]"
4,COc1ccc2c(c1OC)C(=O)OC2Nc1nc(-c2ccc(-c3ccccc3)cc2)cs1 (configuration not stated),"inconclusive: 20 µM [inhibitor, single point]"
5,Cc1ccc2c(c1)CCCN2C(=O)Nc1ccc2c(c1)OCO2,inactive
6,Cc1occc1C(=O)NNC(=O)c1ccccc1C(=O)O,"inconclusive: 35.5 µM [activator, single point]"
7,O=C(Nc1ccc(Br)cn1)c1cccc(C(=O)Nc2ccc(Br)cn2)c1,"inconclusive: 5.62 µM [inhibitor, full curve, poor fit]"
8,Cc1ccc(-c2cc(C(=O)Nc3ccccc3C(N)=O)c3ccccc3n2)o1,"inconclusive: 15.8 µM [inhibitor, single point]"
9,COc1ccc([N+](=O)[O-])cc1NC(=S)NC(NC(=O)Cc1ccc(OC)c(OC)c1)C(Cl)(Cl)Cl (configuration not stated),"inconclusive: 29.1 µM [inhibitor, single point]"
10,COc1ccc(C(=O)Oc2cc(C)[nH]c(=O)c2[N+](=O)[O-])cc1,"inconclusive: 20.6 µM [activator, partial curve, poor fit]"
11,COc1ccc(-c2noc(CSCC(=O)Nc3cccc(C(F)(F)F)c3)n2)cc1OC,inactive
12,CC(C)COCC(O)CCC(=O)NNC(=S)Nc1ccccc1 (configuration not stated),inactive
13,CC(C)CCN(Cc1ccco1)C(=O)c1cc2c(Cl)nc3ccccc3c2s1,inactive
14,CCc1nnc(NS(=O)(=O)c2ccc(N/C=C\C(=O)c3ccc4ccccc4c3)cc2)s1,"inconclusive: 35.5 µM [inhibitor, partial curve, poor fit]"
15,C=CCNC(=O)N1C2=NC(C(=O)OC)=C(C(=O)OC)[C@@H]3N(C)c4ccccc4[C@]23C[C@H]1CO,"inconclusive: 211 nM [activator, full curve, poor fit] and inconclusive: 10.6 nM [inhibitor, full curve, poor fit]"
16,Cn1nc(CC(=O)NC2CCCCC2)c2ccccc2c1=O,inactive
17,CC(C)(C)c1csc(NC(=O)C2COc3ccccc3O2)n1 (configuration not stated),"inconclusive: 25.1 µM [inhibitor, single point]"
18,O=C(COC(=O)c1cnccn1)NCc1ccc(Cl)cc1,inactive
19,CC1CCN(C(CC(=O)c2ccccc2)C(=O)c2ccccc2)CC1 (configuration not stated),"inconclusive: 4.47 µM [activator, single point]"
20,O=C(Nc1cnc2ccccc2c1)c1ccco1,"inconclusive: 10 µM [inhibitor, partial curve, poor fit]"
21,CCOC(=O)C1CCN(Cc2c(C(=O)N3CCOCC3)nc3c(C)cccn23)CC1,"inconclusive: 4.47 µM [inhibitor, single point]"
22,O=[N+]([O-])c1cc(CN2CCCC2)ccc1Sc1ccc(Cl)cc1,"inconclusive: 8.91 µM [inhibitor, partial curve, poor fit]"
23,CC(=O)Nc1ccc(S(=O)(=O)N2CC3(C)CC2CC(C)(C)C3)cc1 (configuration not stated),"inconclusive: 22.4 µM [inhibitor, single point]"

# Exported as tab-separated lines: entries from further up.
row	SMILES	Potency
3	CCn1c2ccc(C)cc2c2n[nH]c(=S)nc21	inconclusive: 4.47 µM [inhibitor, partial curve, poor fit]
10	COc1ccc(F)cc1S(=O)(=O)NC1CCCC1	inconclusive: 0.0041 µM [activator, full curve, poor fit]
3	Cc1[nH][nH]c(=O)c1N=Nc1ccc(Br)c(Cl)c1	inconclusive: 22.4 µM [activator, single point]
13	CC(C)CCN(Cc1ccco1)C(=O)c1cc2c(Cl)nc3ccccc3c2s1	inactive
20	O=C(Nc1cnc2ccccc2c1)c1ccco1	inconclusive: 10 µM [inhibitor, partial curve, poor fit]

# Additional records

row,SMILES,Potency
1,CC1CN(S(=O)(=O)c2cccc(-c3cn4ccccc4n3)c2)CC(C)O1 (configuration not stated),"inconclusive: 20.6 µM [inhibitor, partial curve, poor fit]"
2,Cn1cc(/C=C/c2nc3ccccc3c(=O)n2-c2cccc([N+](=O)[O-])c2)c2ccccc21,inactive
3,COc1ccccc1C(=O)Nc1nc(-c2ccccc2)ns1,"inconclusive: 7.94 µM [activator, partial curve, poor fit]"
4,Cc1cccc(-c2nnnn2-c2cccc(C)c2)c1,"inconclusive: 35.5 µM [inhibitor, single point]"
5,COc1ccccc1C(=O)NCCn1cc(SCc2ccccc2Cl)c2ccccc21,"inconclusive: 35.5 µM [inhibitor, single point]"
6,CCn1c(NC(=O)c2nn(C)cc2Br)nc2ccccc21,"inconclusive: 35.5 µM [inhibitor, partial curve, poor fit]"
7,COc1cccc(COc2ccccc2C2Nc3ccc(Br)cc3C(=O)N2NC(=O)c2ccncc2)c1 (configuration not stated),"inconclusive: 12.6 µM [inhibitor, single point]"
8,CCOC(=O)c1sc(C)nc1C1CCN(C(=O)OCC)CC1,"inconclusive: 8.91 µM [activator, partial curve, poor fit]"
9,Cc1cc(C)c(S(=O)(=O)/N=C2/C=C(Sc3ncn[nH]3)C(=O)c3ccccc32)cc1C,active: 12.6 µM
10,CC1=CC(C)(C)Nc2ccc(OC(=O)c3ccco3)cc21,"inconclusive: 29.1 µM [inhibitor, single point]"
11,CCOC(=O)c1nn(-c2ccc(Cl)cc2)c2nc(CC)c(C#N)c(=O)n12,inactive
12,O=C(CCS(=O)(=O)Cc1ccccc1)Nc1nc2c(s1)CCCC2,"inconclusive: 32.6 µM [inhibitor, single point]"
13,NC(=O)Cc1c[nH]c2cccc(O)c12,inactive
14,COc1ccc(Cl)cc1NC(=O)CN(C)CC(=O)Nc1ccccc1N1CCOCC1,"inconclusive: 11.2 µM [inhibitor, partial curve, poor fit]"
15,CCOc1ccccc1NC(=O)NCCn1c(=O)oc2ccc(C)cc21,"inconclusive: 15.8 µM [inhibitor, single point]"
16,CCCC(CCC)C(=O)NNc1cc(=O)c2c(=O)n(C)c(=O)n(C)c2[nH]1,inactive
17,CC1CCc2[nH]c3ccc(C(=O)N(C)CC(=O)Nc4ccccc4C(F)(F)F)cc3c2C1 (configuration not stated),"inconclusive: 28.2 µM [inhibitor, single point]"
18,CCc1ccc(-c2nn(CC(=O)NC3CCCC3)c3c2cnc2ccc(F)cc23)cc1,inactive
19,CSc1nc(N)c(N=Nc2ccc([As](=O)(O)O)cc2)c(=O)[nH]1,inactive
20,Cc1cccc(NC(=O)/C=C/c2ccc(Cl)cc2)n1,"inconclusive: 0.316 µM [activator, partial curve, poor fit]"
21,CCOC(=O)Cn1c(S(=O)(=O)Cc2ccccc2)nc2ccccc21,inactive
